# According to US20240117385A1, “ENZYMES OF LUCIFERIN BIOSYNTHESIS AND USE THEREOF” (LIGHT BIO, INC., priority 2018, published 2024):
# Some of these results come from one statement about several compounds together. Some compounds share one range, which may span the group rather than tell each member.
# Test system: Pichia pastoris GS115 cells, constitutively expressing Neonothopanus nambi luciferase
# Assay: Pichia pastoris colonies expressing hispidin hydroxylase homolog genes and luciferase, sprayed with hispidin
# Type: cell-based
# Settings: IVIS Spectrum CT; vs control cells
row,Molecule,"luminescence at spraying with hispidin solution, times more than control cells"
1,"SEQ ID NO: 5: coding sequence of a hispidin hydroxylase homolog (nucleic acid, listed as Guyanagaster necrorhiza) DNA: ATGCAACAAATCGACGAAGTGTGCCCATTGAAAGTGATCGTTGTAGGTGCTGGACTTGGGGGCCTTTCTGCTGCCATTGCCCTTCGTAGGCAAGGCCATTGTGTCCATATACTGGAATCGTCAAGTTTCAAGAGCGAACTTGGCGCAGGTCTCGCAGTACCGCCCAATACTGTACGCTCACTTCGAGGCCTAGGCTGTAACATCGACAATCTCAAGCCTGTGGATAATCTTTGTTTCACTGCCATGGCGCATGACGGAAGTCCTGGTATGATGAATAACATGACGGACTATGGCCAGGCGTATGGAGATCCTTGGGTAATGGCGCATCGTGTTGACCTTCACAATGAGCTCATGCGAGTGGCCCTTGAACCCGAAAAAACGGGACCTCCTGCCCAGCTTCGTCTGGACAGCCAGGTGGCATCTTGCAATGTAGATGCCTGTACCGTTTCTCTTGTCGACGGAACAATTTATTCCGCTGATCTTATCGTTGGTGCAGACGGAATTAGGTCTACCATACGCTCCTATGTTTTGGACGCAGAAATAGACATACCTCCTACCGGTATCGCTGGATACCGTTGGCTCACACCTGCAGAAGCTTTGGAGCCATATCCCGAACTCGACTGGATCATCAAGAACCCACCCCTAGGAGCACGTTTAATCACAGCTCCTGTACGCCGAAACGACAGCATTGAGCAGTCGGGTCCTGCTCCTATTTCTGAGAAGGCTGACAAGCGTACGATCATCATCTACGCGTGCCGGAATGGTACTATGCTTAACGTTCTCGGTGTACACGATGACCCTCGCAACCAGAACGAAGTTGGATGGAACGTGCCAGTTACCCAAGAAAGTTTGCTGGATTTTTTTAAAGACTATCATCCCCGATTCAAGCGTCTGCTTGAGCTGGCTGACAATGTTCATCTGTGGCAAATGCGCGTCGTCCCGCGGCTTGAGACTTGGATCAATAAACGCGTGTGTTTGTTGGGCGATTCTGCGCATGCATCATTACCAACACTCGGTCAAGGCTTCGGGATGGGACTTGAGGATGCCGTAGCCCTTGCAACCCTCCTTCCGATGGGAACCAAAGTGTCTGACATCGAGAACCGCCTCGTCGCCTACGAAAGCTTGCGTAAGGGGCGCGCTGAGTATGTGGCCATGGAATCGTTCGAACAACAGAATATCCCGGAAAAGCGAGGCTTGTATCTCAGGTCTTCTATGATGCGTGACGAAATCATGGGTTATGATGTCAAAGCCGAGGCTGAGAAGGTTTTTAAAGAATTAATGACCTCGACTGATAAGGTTACATACCGTCCCCATGTGGACTGTCTATGG",1000-100000000 times
2,"SEQ ID NO: 9: coding sequence of a hispidin hydroxylase homolog, Panellus stipticus (nucleic acid, listed as Panellus stipticus) DNA: ATGTCACAAGGCACTGAAGACTCGCCCTCACTCTTCGCAATAGTTGTCGGTGCTGGTCTGGTCGGCTTTGCCGCTGCCGTCGCGCTGCGCCGTCAAGGTCACCGTGTCACGATCTACGAATCTTCAAGCTTTAAGACAGAACTTGGGGCGGGCCTCGCGATCCCTTCAAACACATTGCGATGCTTGGTTGGCCTTGGATGTACTGTCGCCAACATGGATCCCGTCAATAATCTTTGTTTTACATCGATGGCATACGATGGTACCGCGGGGATGAAAAGCGACAGCTCCGACTACGAGGCGCAGTATGGCACTCCCTGGATCATGGCCCACCGCGTCGATCTGCACAAGGAGCTTCGTCGCCTGGCAGTGGATCCCGAGGGCACCGGTCCCCCCGCAGAACTGCACCTTAGCCACCGGGTTGTCTCCTGCGACGTCGAATCCGGCTCCGTCACGCTCCTGGACGGCTCCGTTCAGTCAGCAGACTTGATAATTGGGGCTGATGGAATTCGTTCAACCGTTCGCAAATTTGTCGTAGGCGAAGAAATAGCAATCCCCCCATCTCGTACGGCGGGCTTCCGCTGGCTCACACAAGCAAGCGCTCTTGACCCCTACCCCGAACTGGATTGGATCGTGAAAACGCCGCCGTTGGGTGCTCGGGTAATCTCCGCTCCGATTCAACCTCCAGAAGTCACCCACATCGACCACCGTACGATCGTCATCTATGCCTGTCGCGGAGGTCGTCTCGTAAATGTTCTAGGAATACATGAGGATCTGCGCGACCAGGATTCTGTCGACTGGAACGTCCCCATAACGCGAGAAGCGCTGCTCCACTTTTTCGGAGACTACCACCCACGGTTCAAGCGGCTCTTGGAGCTCGCGGAGGACGTACACGTCTGGCAGATGCGCGTGGTCCCCCCACTGCCGACATGGGTGAACGGCCGCGTATGCATCATGGGCGACGCAGCGCATGCATCGCTTCCCACACTGGGACAAGGGTTTGGCATGGGCCTCGAAGACGCGGTCGCGCTCGGGACGCTGCTTCCTAGTTCGACGCCGTCAAGCGACATTCCAAGCCGTCTCGTCGCGTACGAGAAGCTTCGCAAAGCGCGCGCTGAGTATGTTTCCAAAGAGTCGTACGAACAGCAGCATGTCCGAGAAAAGAGAGGGCTGTATCTCCGGTCCCGAGAAATGCGGGATGTGATCATGGGATACGACGTGAAGAAGGAGGCAGAACGGATCTTGAGCGAGATCAGCATTGCACAAGAACAGTGTGCTGTTCATGAT",1000-100000000 times
3,"SEQ ID NO: 11: coding sequence of a hispidin hydroxylase homolog, Panellus stipticus (nucleic acid, listed as Panellus stipticus) DNA: ATGTCACAAGGCACTGAAGACTCGCCCTCACTCTTCGCAATAGTTGTCGGTGCTGGTCTGGTCGGCTTTGCCGCTGCCGTCGCGCTGCGCCGTCAAGGTCACCGTGTCACTATCTACGAATCTTCAAGCTTTAAGACAGAACTTGGGGCGGGCCTCGCGATCCCTTCAAACACATTGCGATGCTTGGTTGGCCTTGGATGTACTGTCGCCAATCTGGATCCCGTCAATAATCTTTGTTTTACATCGATGGCTTACGATGGTACCGCGGGGATGAAAAGCGACAGCTCCGACTACGAGGCGCAGTATGGCACTCCCTGGATCATGGCCCACCGCGTCGATCTGCACAAGGAGCTTCGTCGCCTGGCAGTGGATCCCGAGGGCACCGGTCCCCCCGCAGAACTGCACCTTAGCCACCGGGTTGTCTCCTGCGACGTCGAATCCGGCTCCGTCACGCTCCTGGACGGCTCCATTCAGTCAGCAGACTTGATAATTGGGGCTGATGGAATTCGTTCAACCGTTCGCAAATTTGTCGTAGGCGAAGAAATAGCAATCCCCCCATCTCGTACGGCGGGCTTCCGTTGGCTCACACAAGCAAGCGCTCTTGACCCCTACCCCGAACTGGATTGGATCGTGAAAACGCCGCCGTTGGGTGCTCGGGTAATCTCCGCTCCGATTCAACCTCCAGAAGTCACCCACATCGACCACCGTACGATCGTCATCTATGCCTGTCGCGGAGGTCGTCTCGTAAATGTTCTAGGAATACATGAGGATCTGCGCGACCAGGATTCTGTCGACTGGAACGTCCCCATAACGCGAGAAGCGCTGCTCCACTTTTTCGGAGACTACCACCCACGGTTCAAGCGGCTCTTGGAGCTCGCGGAGGACGTACACGTCTGGCAGATGCGCGTGGTCCCCCCACTGCCGACATGGGTGAACGGCCGCGTATGCATCATGGGCGACGCAGCGCATGCATCGCTTCCCACACTGGGACAAGGGTTTGGCATGGGCCTCGAAGACGCGGTCGCGCTCGGGACGCTGCTTCCTAGTTCGACGCCGTCAGGCGACATTCCAAGCCGTCTCGTCGCGTACGAGAAGCTTCGCAAAGCGCGCGCTGAGTATGTTTCCAAAGAGTCGTACGAACAGCAGCATGTCCGAGAAAAGAGAGGGCTGTATCTCCGGTCCCGAGAAATGCGGGATGTGATCATGGGATACGACGTGAAGAAGGAGGCAGAACGGATCTTTAGCGAGATCAGCATTGCACAAGAACAGCGTGCTGTTCATGAT",1000-100000000 times
4,"SEQ ID NO: 17: coding sequence of a hispidin hydroxylase homolog, Mycena citricolor (nucleic acid, Mycena citricolor) DNA: ATGAACACCCCCAATAACGCTCTCGATGTTATTGTTGTCGGTGCTGGCCTGGTTGGTTTCGCGGCCGCTGCTGCTCTACGCCGACAAGGTCATCGCGTGACTATCTATGAGACTTCCAGCTTCAAGAACGAGTTAGGAGCTGGCCTGGCTATTCCACCCAACACTGTCCGTGGTCTAATTGGCTTGGGATGTGTGATTGAGAACTTGGACCCGGTGGAGAATCTATGCTTCACTGCCGTCGCGTTTGACGGAAGTGCTGGTATGCGCAGCGACCAAACCAACTACGAAGCAAGTTACGGCCTTCCCTGGATCATGGTGCATCGTGTCGATTTGCACAACGAGCTTCGTCGGGTTGCTCTCAGCGCCGAGGGGAACACTGGTCCCCCAGCGGAGCTACGCCTGGACCACCGAGTCAGCTCGTGTGATGTCGAGAAATGCACTGTGACGCTGAGCAATGGGGATACCCACCACGCAGATCTGATCATTGGAGCAGACGGGATCCATTCTACAATCCGATCCTTCGTTGTGGGCGAGGAAATCGTCATTCCGCCCTCCAAGACAGCCGGTTTCCGCTGGCTCACAGAGAGTACTGCGTTGGAGCCCTATCCGGAATTGGACTGGATTGTGAAGATCCCACCACTTGGCGCCCGGCTGATCTCTGCGCCAATGAACCCTGCGCCACCGCAGGTCGACCACCGGACGATCATCATCTACGCCTGTCGTGGCAGTACACTGATAAATGTACTCGGAGTCCATGAGGATCTCCGCGATCAAGATACAGTCCCCTGGAATGCACCCGTAACCCAATCGGAGCTGCTCCAGTTCTTTGGCGATTACCATCCGCGGTTCAAACGATTGTTGGAGCTTGCAAATGATGTTCATGTGTGGCAGATGCGAGTAGTGCCCCGCTTGGAGACCTGGGTCAATCGTCGGGTTTGCATTATGGGCGATGCTGCGCATGCATCACTCCCCACGCTGGGTCAAGGTTTCGGAATGGGGCTCGAGGATGCAGTCGCTCTTGGAACACTCCTTCCGCTTGGGACAACTCCCGAAGAGATCCCGGACCGTCTCACCCTCTGGCAGGATCTCGTCAAACCTCGGGCTGAGTTTGTCGCGACTGAATCCTACGAACAGCAGCATATTCCTGCGAAACGGGGACTCTATCTTCGCTCGCAGGAGATGCGCGACTGGGTCATGGGATACGATGTCCAGGCTGAGGCACAGAAGGTCTTGGCGGGAGCTGTGAATAGATCCAAGGGA",1000-100000000 times
